The record followed here is PMC7862700.

Some of the results follow. Construct or isoform of the protein are uncertain.

The assay concerns the target T1, ETS1 (UniProt P14921).
T1 sequence: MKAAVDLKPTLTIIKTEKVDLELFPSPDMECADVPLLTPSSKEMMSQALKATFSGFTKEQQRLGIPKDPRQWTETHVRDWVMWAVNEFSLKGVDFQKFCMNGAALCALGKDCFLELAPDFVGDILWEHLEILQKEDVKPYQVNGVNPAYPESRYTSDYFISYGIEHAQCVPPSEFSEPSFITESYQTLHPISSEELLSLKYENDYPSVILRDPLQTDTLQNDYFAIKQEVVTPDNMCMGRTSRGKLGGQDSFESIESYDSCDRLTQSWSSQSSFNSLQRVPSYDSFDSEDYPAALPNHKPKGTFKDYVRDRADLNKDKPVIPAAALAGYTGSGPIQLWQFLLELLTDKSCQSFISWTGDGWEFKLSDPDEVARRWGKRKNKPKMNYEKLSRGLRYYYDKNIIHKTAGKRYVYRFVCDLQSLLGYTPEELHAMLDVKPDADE
Briefly: DAPPL (digital affinity profiling via proximity ligation, sequencing). Conditions: 10 mM Tris-HCl pH 7.5, 50 mM NaCl, 1 mM DTT, 4% glycerol, room temperature, 30 min; GST-TFs on glutathione beads, 16-mer random dsDNA library, 0.1% …; high values mean tight binding; double strand, one strand shown; scale: fold enrichment (6-mer frequency, TF over GST control).
For the sequence GCATGC, the binding signal was determined as 0.82. AGCCGT displayed a binding signal of 0.525. As to GGCAGA, the binding signal was 0.632.

As for AGAGGG, the binding signal is 0.703. For ATCGAG, the binding signal is 0.855. On to GGACCA, for which the binding signal amounted to 0.758. The same measure for GTGATA: 0.674. CGGTGT: the binding signal amounted to 0.694. The same measure for GGTGGA: 0.638. The same measure for CGGGAG: 0.219; for CCAGTT: 0.623; for TCGTAG: 0.828. The value for AGAGTT was 0.723; that for AGGGGC was 0.761. In turn, GACCAC had a binding signal of 0.883. The same measure for ATAGAG: 0.881; for GTCATC: 0.867; for GCGGTC: 0.704. The value for AGTAGT was 0.933; that for GGTCGG was 0.264; that for TCAGGG was 0.779.

CAGTTA showed a binding signal of 0.758. The same measure for CGTGTG: 0.39; for ACAGAG: 0.643. Sequence GGGACT displayed a binding signal of 0.662. Consider GAGGTC, for which the binding signal came to 0.571. The same measure for GGGACA: 0.678; for GGGGAA: 0.732; for GCACGT: 0.784. The value for GGGTCT was 1.06; that for GGCAGT was 0.524; that for GCAGTG was 0.565. The value for GGGATC was 0.657; that for GAGAAG was 0.691; that for AGGGAG was 0.375. AGGTTG registered a binding signal of 0.77. The same measure for CCGTGG: 0.403; for AGATCG: 0.46. AGAGTC: the binding signal turned out to be 0.419.
